Measured values reported in patent publication EP1348440A1, “Use of angiotensin 1-7 for enhancing cardiac function” (Citeq B.V., priority 2002, dated 2003).
Part of at least one peptide drawing is inferred or uncertain, most often the ends.

Legend:
coronary flow = assay: Ex vivo coronary flow in a Langendorff setup, hearts of treated MI rats; parameters: species or system male Sprague-Dawley rats
[1] = tested on: rat coronary artery ligation model; assay: Hemodynamic studies under isoflurane anesthesia with a microtip pressure transducer in MI rats; type: in vivo, male Sprague-Dawley rats
isolated aortic rings = assay: Endothelium-dependent relaxation in isolated aortic rings of treated MI rats; type: in vivo, male Sprague-Dawley rats; settings: phenylephrine precontracted aortic rings; P <0.05 versus MI control; Figure 2
[2] = tested on: rat coronary artery ligation model; assay: General characteristics and histology after 8 weeks of treatment in the rat coronary artery ligation (MI) model; type: in vivo, male Sprague-Dawley rats
[3] = Ang-(1-7) versus saline-treated MI groups

## CC[C@H](C)[C@H](NC(=O)[C@H](Cc1ccc(O)cc1)NC(=O)[C@@H](NC(=O)[C@H](CCCNC(=N)N)NC(=O)[C@@H](N)CC(=O)O)C(C)C)C(=O)N[C@@H](Cc1c[nH]cn1)C(=O)N1CCC[C@H]1C(=O)O [Ang-(1-7), angiotensin-(1-7)]
Coronary flow; 2-minute infusion of adenosine (maximal coronary flow), MI rats, 24 µg/kg per hour i.v., 8 weeks, mean ± SEM
  Ex vivo coronary flow, adenosine 10^-5 M: 12.3 ± 0.8 ml/min per g ventricular weight
Coronary flow; 2-minute infusion of bradykinin (coronary endothelial function), MI rats, 24 µg/kg per hour i.v., 8 weeks, mean ± SEM
  Ex vivo coronary flow, bradykinin 3·10^-8 M: 11.1 ± 0.7 ml/min per g ventricular weight
Coronary flow; 3 x 10^-8 mol/L bradykinin, versus sham
  Bradykinin-dependent flow (in words): not significantly impaired
Coronary flow; 10^-5 mol/L adenosine, difference versus sham-operated rats
  Maximal flow after adenosine infusion (in words): did not reach statistical significance
Coronary flow; Langendorff, versus sham-operated hearts, Figure 1F
  baseline coronary flow (in words): almost completely preserved
Coronary flow; baseline, MI rats, 24 µg/kg per hour i.v., 8 weeks, mean ± SEM
  Ex vivo coronary flow, baseline: 8.2 ± 0.6 ml/min per g ventricular weight
[1]; 8 weeks of Ang-(1-7) treatment, MI rats
  reduction in left ventricular end-diastolic pressure: 40%
[1]; anesthetized MI rats after 8 weeks of treatment, versus sham, Figure 1
  cardiac function (hemodynamic parameters) in vivo (in words): none of these parameters were significantly deteriorated, except the systolic dP/dt
[1]; group infused with Ang-(1-7), 8 weeks
  mean arterial pressure (in words): an increase in mean arterial pressure was found
Isolated aortic rings
  metacholine-induced relaxation (in words): identical to sham rats
[2]; [3]
  capillary density (in words): did not differ
  infarct size (in words): did not differ
[2]; GSL-I stained sections, MI rats, 24 µg/kg per hour i.v., 8 weeks, mean ± SEM
  capillary density: 2578 ± 176 N/mm^2
[2]; MI rats, 8 weeks of treatment, versus sham
  increase of myocyte cross-sectional area after infarction (in words): attenuated to a nonsignificant level
[2]; hematoxylin/eosin-stained sections, MI rats, 24 µg/kg per hour i.v., 8 weeks, mean ± SEM
  myocyte cross-sectional area: 409 ± 21
[2]; left ventricular weight body weight ratio, MI rats, 24 µg/kg per hour i.v., 8 weeks, mean ± SEM
  LVW/BW: 3.42 ± 0.10 mg/g
[2]; percentage of scar length of total left ventricular circumference, MI rats, 24 µg/kg per hour i.v., 8 weeks, mean ± SEM
  infarct size: 29.6 ± 3.3%
